# PubChem BioAssay AID504791, Drosophila RNAi Screening Center – 2011
# Test: 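Factors in Argonaute-based small RNA production and activity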 (primary screen)
# System: Drosophila S2-derived reporter cells
# Knock-down reagent: long dsRNA against Drosophila genes, about 150-250 ng dsRNA per well (siRNA assay); about 80-120 ng (miRNA assay)
# Time to read-out: about 5 days (siRNA assay); about 4 days (miRNA assay)
# Conditions: copper sulfate induction of reporters: 25 µM (siRNA assay); 200 mM stated (miRNA assay), 1-2 days before reading
# Detection: 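Dual luciferase assay: Renilla to firefly signal ratio in each well, scaled to the mean ratio of its plate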
# Hit rule: 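a well was a first-pass pick when its plate-scaled ratio rose above 1.5 (siRNA assay) or 1.6 (miRNA assay), or dropped below 0.6; a gene counted only if two separate dsRNAs agreed on retest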
# The screen tested about 23,000 reagents; below is an unselected part of those that have a named target and a result. In the full data, 199 (0.86%) got an active call. 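Plate-scaled ratios behind the calls are not deposited; printed light signals are raw; many rows marked increased or decreased are still called inactive.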 Reagents against one gene are numbered here. Names joined by + are all predicted targets of the reagent. The record does not give: the direction of the score.
Gene,reagent,stable siRNA reporter change,miRNA reporter change,"stable assay Renilla, run 1 (luminescence)","stable assay firefly, run 1 (luminescence)",call
Pop1 (POP1 ribonuclease P/MRP subunit),1,,,6750,5.19e5,inactive
CG14556,1,,,6667,3.17e5,inactive
CG33465,1,,,5820,4.58e5,inactive
CG15729 (retired record),1,,,5915,4.42e5,inactive
Cyp6a14 (retired record),1,,,6150,3.25e5,inactive
CG12902,1,,,6878,4.25e5,inactive
VhaAC45RP (VhaAC45-related protein),1,,,3704,3.31e5,inactive
Vps28 (Vacuolar protein sorting 28),1,,,8725,4.74e5,inactive
Ctr9,1,,reporter ratio lowered past the hit cutoff,5352,2.26e5,active
Ref2 (RNA and export factor binding protein 2),1,,,6791,3.54e5,inactive
Yeti,1,,reporter ratio raised past the hit cutoff,8462,4.84e5,inactive
CG1486,1,,,6855,4.73e5,inactive
Rhp (Rhophilin),1,,,5139,4.76e5,inactive
CG9346,1,,,7082,6.33e5,inactive
miple2 (midkine and pleiotrophin 2),1,,,7102,3.48e5,inactive
CG18063,1,,,7246,3.98e5,inactive
Drep3 (DNA fragmentation factor-related protein 3),1,,,3496,2.33e5,inactive
Drep3 (DNA fragmentation factor-related protein 3),2,,,3480,3.58e5,inactive
Drep3 (DNA fragmentation factor-related protein 3),3,,,8142,5.16e5,inactive
Pfdn1 (Prefoldin 1),1,,,8487,4.99e5,inactive
CG15814,1,,,9539,4.66e5,inactive
CG7794,1,,,7875,3.11e5,inactive
CG31681,1,,,6179,3.72e5,inactive
r + CG13012,1,,,5318,4.95e5,inactive
O-fut1 (O-fucosyltransferase 1),1,,,8245,4.00e5,inactive
Pde11 (Phosphodiesterase 11),1,,,4612,3.55e5,inactive
Pde11 (Phosphodiesterase 11),2,,,5358,4.21e5,inactive
Adh + Adhr,1,,,1.51e5,9.78e5,inactive
Adh + Adhr,2,,,8099,4.08e5,inactive
CG14107,1,,,6240,3.35e5,inactive
fu (fused),1,,,7039,4.73e5,inactive

Continued, starting with the last 4 of the part before.
Gene,reagent,stable siRNA reporter change,miRNA reporter change,"stable assay Renilla, run 1 (luminescence)","stable assay firefly, run 1 (luminescence)",call
Adh + Adhr,1,,,1.51e5,9.78e5,inactive
Adh + Adhr,2,,,8099,4.08e5,inactive
CG14107,1,,,6240,3.35e5,inactive
fu (fused),1,,,7039,4.73e5,inactive
CG33235,1,,,4559,4.43e5,inactive
nito (spenito),1,,reporter ratio lowered past the hit cutoff,3304,2.66e5,active
CG4806,1,,,6763,4.55e5,inactive
CG13359,1,,,5954,3.69e5,inactive
Gr64a (Gustatory receptor 64a),1,,,9580,5.32e5,inactive
ase (asense),1,,,5990,4.44e5,inactive
grass (Gram-positive Specific Serine protease),1,,,6615,3.23e5,inactive
pira (pirate),1,,,5663,4.18e5,inactive
tko (technical knockout),1,,reporter ratio lowered past the hit cutoff,5346,4.66e5,inactive
CG3328,1,,,68085,1.02e6,inactive
her (hermaphrodite),1,,,14244,2.06e6,inactive
CG13367,1,,,7927,4.49e5,inactive
CG13367,2,,,8017,5.35e5,inactive
RpS15Ab + RpS15Aa,1,,,6271,3.20e5,inactive
RpS15Ab + RpS15Aa,2,,,4588,2.78e5,inactive
Idgf4 (Imaginal disc growth factor 4),1,,,4879,3.12e5,inactive
CG34244,1,,,5611,4.33e5,inactive
CG7653,1,,,7612,4.11e5,inactive
lin-28,1,,,6107,4.54e5,inactive
CG8840,1,,,7736,4.43e5,inactive
CG4151,1,,,5516,3.26e5,inactive
CG7367,1,,,8326,4.93e5,inactive
CG45105,1,,,5978,2.51e5,inactive
CG45105,2,,,7634,4.69e5,inactive
CG10019,1,,,5995,2.96e5,inactive
Pal1 (Peptidyl-alpha-hydroxyglycine-alpha-amidating lyase 1),1,,,9575,4.89e5,inactive
CG4461,1,,,5610,4.23e5,inactive
gammaTub23C (gamma-Tubulin at 23C),1,,,1.35e5,4.90e5,inactive
Dap160 (Dynamin associated protein 160),1,,,7817,6.16e5,inactive
kuz (kuzbanian),1,,,8738,3.75e5,inactive
CG18269,1,,,7506,4.47e5,inactive
Dph3 (Diphthamide biosynthesis 3),1,,,6514,4.16e5,inactive
conv (convoluted),1,,,6691,4.76e5,inactive
lawc (retired record),1,,,1192,74637,inactive
lawc (retired record),2,,,5214,3.67e5,inactive
CG11249,1,,,7530,4.70e5,inactive
CG7084,1,,,7748,2.77e5,inactive
RpS7 (Ribosomal protein S7),1,,reporter ratio lowered past the hit cutoff,6083,4.15e5,active
RpS7 (Ribosomal protein S7),2,,reporter ratio lowered past the hit cutoff,,,active
CG11362,1,,,5738,3.78e5,inactive
CG11362,2,,,9320,5.85e5,inactive
Synj (Synaptojanin),1,,,9307,1.07e6,inactive
Kal1 (Kallmann syndrome 1),1,reporter ratio raised past the hit cutoff,,11256,2.86e5,inactive
Cdlc2 (Cytoplasmic dynein light chain 2),1,,,1.23e5,99096,inactive
CG7912,1,,,6046,3.51e5,inactive
crok (crooked),1,,,7158,4.24e5,inactive
crok (crooked),2,,,8865,4.14e5,inactive
Mmp1 (Matrix metalloproteinase 1),1,,,6152,3.10e5,inactive
CG3984,1,,,7799,4.50e5,inactive
Coq2 (Coenzyme Q biosynthesis protein 2),1,,,7103,5.63e5,inactive
Coq2 (Coenzyme Q biosynthesis protein 2),2,,,8654,5.28e5,inactive
uzip (unzipped),1,,,19660,1.26e6,inactive
